Drawing on PMC12242767, this text covers binding for 1 molecule.

The assay concerns the target T1, Aco1 (S. cerevisiae) (UniProt P19414).
T1 sequence: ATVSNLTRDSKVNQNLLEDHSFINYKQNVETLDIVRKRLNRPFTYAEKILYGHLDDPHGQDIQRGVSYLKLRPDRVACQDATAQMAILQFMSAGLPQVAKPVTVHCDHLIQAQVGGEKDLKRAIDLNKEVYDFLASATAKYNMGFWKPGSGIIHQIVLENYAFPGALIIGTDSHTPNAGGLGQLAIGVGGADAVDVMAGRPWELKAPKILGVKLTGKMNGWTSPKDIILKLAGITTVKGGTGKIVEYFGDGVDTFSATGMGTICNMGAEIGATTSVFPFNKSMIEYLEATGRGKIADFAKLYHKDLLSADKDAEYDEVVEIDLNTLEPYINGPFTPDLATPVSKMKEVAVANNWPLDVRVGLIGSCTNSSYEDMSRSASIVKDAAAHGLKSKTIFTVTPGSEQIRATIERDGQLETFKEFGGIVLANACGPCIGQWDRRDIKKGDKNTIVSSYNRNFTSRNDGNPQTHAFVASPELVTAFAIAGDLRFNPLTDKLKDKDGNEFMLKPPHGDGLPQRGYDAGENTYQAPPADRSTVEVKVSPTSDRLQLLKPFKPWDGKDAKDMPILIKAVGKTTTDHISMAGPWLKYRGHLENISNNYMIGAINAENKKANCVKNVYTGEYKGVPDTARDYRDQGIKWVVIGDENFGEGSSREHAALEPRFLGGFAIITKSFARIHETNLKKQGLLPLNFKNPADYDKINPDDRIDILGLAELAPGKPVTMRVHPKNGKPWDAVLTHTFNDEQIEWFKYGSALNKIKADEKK
Briefly: co-sedimentation; linear sucrose gradient (0.3–1 M) of mitochondrial lysate in 1% DDM, 10 mM Tris–HCl pH 7.4, 10 mM KOAc, 0.5 mM Mg(OAc)2, 10 mM EDTA; 164 000 x g 1 h 4°C; fractions blotted; WT and cbp3Δ, cbp1Δ, mrx4Δ strains.

These are yes or no findings as the source states them, for the method shown. In cells and extracts the contact can be indirect.

B1: Mrx4 (protein, UniProt Q12467 28-430)
chain: VSHARSGGAKFGGRNVFNIFDSKTPDSVRIKAFKNTIYQSAMGKGKTKFSAMEINLITSLVRGYKGEGKKNAINPLQTNVQILNKLLLTHRLTDKDILEGMNLAAGPVNVAIPRDITPQEEKKKVELRNRKAENMDLHPSRKMHIKELLHSLNLDMCNDEEVYQKISLYLQKNEESRTSVGASQQNHVDIDINSLKRYLQNIEKKARQKSAIDKQKKNQARIYQWNTQSFSEIVPLSAGNILFKREPNRLWKRLQNGISVFLGSNGGGKKSKTTKKVLQGNNILLHSLENNKDMTLSNNFDHSVFNINFTDLFGVINASGSPPDRVLNEINEIELKGWKCVGNLYDNNKIVVFQSSNPLLEDTKIPQKSFTNSKRFLISLSALLASFFAYYRYRLSQRQESKK
In the case of B1, the binding entry is “no binding”.
